# The whole screen tested about 390,000 compounds, of which about 610 (0.16%) were called active. The inconclusive results got no clear call from the source; some entries with a clear call stand among them for comparison. The call rests on the fitted dose curve; in most records, active means well fitted inhibition curve with a large enough effect; inconclusive means small, poorly fitted or top-dose-only effect, or effect the other way, or another doubt; inactive means no such curve, though single readings can be large or run the other way. Where the call is inconclusive, the potency comes from a doubtful curve fit.
# Assay: Nrf2 qHTS screen for inhibitors: counterscreen for cytotoxicity
# Details: A549 ARE-Fluc cells, CellTiter-Fluor viability, 18-24 h; activity change, negative = cytotoxicity: at 46 µM (top of the series)
# Method in brief: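 Cytotoxicity counterscreen: CellTiter-Fluor fluorescence was measured in A549 ARE_Fluc cells after 18-24 h of compound exposure in a concentration series. The subsequent BugLite luminescent read reports ARE-luciferase activity.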
# On the % scale 0 is the no-effect control and ±100 the full control effect; potency means the concentration at half of the fitted maximal effect.
Compound,Potency,"activity change, negative = cytotoxicity"
Cc1noc(C)c1COC(=O)c1csc2c1CCC(C)C2 (configuration not stated),inactive,
CCN(CC)c1nc2ccccc2nc1C(C#N)C(=O)NCCCOC (configuration not stated),"inconclusive: 23.1 µM [falling, partial curve, poor fit]",
COc1ccc(N2CCN(C(CNC(=O)C(=O)NCc3ccc(F)cc3)c3cccnc3)CC2)cc1 (configuration not stated),"inconclusive: 8.2 µM [falling, partial curve, poor fit]",
CCn1c(CCCCc2n[nH]c(=S)n2CC)n[nH]c1=S,inactive,
COc1cc(/C=C2/CCCC(C(=O)C(F)(F)F)=C2O)ccc1O,inactive,
Cc1cc(Nc2ccc(O)cc2)n2c(nc3ccccc32)c1C#N,inactive,
CCN1CCC(O)(/C=C/c2ccc(C(C)C)cc2)C(C(=O)/C=C/c2ccc(C(C)C)cc2)C1 (configuration not stated),"inconclusive: 2.91 µM [activator, partial curve, poor fit]",
O=[N+]([O-])c1ccc(N2CCN(C(=S)c3cccc([N+](=O)[O-])c3)CC2)cc1,"inconclusive: 16.4 µM [falling, partial curve, poor fit]",
O=C(O)c1cc([N+](=O)[O-])ccc1N1CCC(Cc2ccccc2)CC1,"inconclusive: 11.6 µM [falling, partial curve, poor fit]",
CC(=O)Nc1ccc(S(=O)(=O)N2CCSC2c2ccc(Cl)cc2)cc1 (configuration not stated),"inconclusive: 18.4 µM [falling, partial curve, poor fit]",
CSc1ccc(CN(C)C(=O)CNC(=O)c2ccc3c(c2)OCO3)cc1,inactive,
Oc1ccc(-c2csc(-c3ccccc3)n2)cc1O,"inconclusive: 14.6 µM [falling, single point]",
Cc1cc2c(cc1NC(=O)c1ccc(C(C)(C)C)cc1)n(C)c(=O)c(=O)n2C,inactive,
Cc1cc(Cl)c(OCCCNC2CCCC2)c(Br)c1,"inconclusive: 29.1 µM [falling, partial curve, poor fit]",
Cc1cccc(C(=O)Nc2ccccc2SCC(=O)Nc2ccc(C)c(Cl)c2)c1,"inconclusive: 20.6 µM [falling, partial curve, poor fit]",
CCC(NC(=O)c1cncc(Br)c1)c1ccccc1 (configuration not stated),"inconclusive: 20.6 µM [activator, partial curve, poor fit]",
COCc1cc(C)nc(Nc2ccccc2OC)c1C#N,"inconclusive: 20.6 µM [activator, partial curve]",
Cc1ccc(-c2noc(CCC(=O)Nc3ccccc3C)n2)cc1,"inconclusive: 1.46 µM [activator, partial curve]",
COc1ccccc1OCCCn1c(=O)oc2ccccc21,inactive,
N#CCCn1cc(/C=N/O)c(-c2ccc(-c3ccccc3)cc2)n1,"inconclusive: 23.1 µM [falling, partial curve, poor fit]",
COc1ccc(NC(=O)c2sc3nc[nH]c(=O)c3c2C)cc1,,inconclusive: -49% [activator]

# Among those listed so far, these contain a Cl atom.
Compound,Potency,"activity change, negative = cytotoxicity"
CC(=O)Nc1ccc(S(=O)(=O)N2CCSC2c2ccc(Cl)cc2)cc1 (configuration not stated),"inconclusive: 18.4 µM [falling, partial curve, poor fit]",
Cc1cc(Cl)c(OCCCNC2CCCC2)c(Br)c1,"inconclusive: 29.1 µM [falling, partial curve, poor fit]",
Cc1cccc(C(=O)Nc2ccccc2SCC(=O)Nc2ccc(C)c(Cl)c2)c1,"inconclusive: 20.6 µM [falling, partial curve, poor fit]",

# (more compounds)

Compound,Potency,"activity change, negative = cytotoxicity"
COc1ccc(CN(CCC(c2ccc(F)cc2)C2CCOC(C)(C)C2)C(=O)c2ccco2)cc1 (configuration not stated),"inconclusive: 14.6 µM [falling, single point]",
CCOC(=O)c1sc(Nc2nc3c(OC)cccc3s2)cc1C,"inconclusive: 29.1 µM [falling, single point]",
Cc1ccc(-c2nc(Nc3ccccc3)n[nH]2)cc1,"inconclusive: 6.31 µM [activator, partial curve, poor fit]",
O=C1CN(C(=O)C2CCCCC2)C(c2ccccc2)c2cc(F)ccc2N1 (configuration not stated),inactive,
CCC(Oc1ccccc1)C(=O)Nc1cc(C(F)(F)F)ccc1N1CCOCC1 (configuration not stated),"inconclusive: 2.91 µM [activator, partial curve, poor fit]",
CCN(CC)CCNC(=O)C1CCCN(c2nnc(C)c3c(C)n(-c4ccc(Cl)cc4)nc23)C1 (configuration not stated),"inconclusive: 18.4 µM [falling, single point]",
O=C(CSc1ncccn1)N1CCN(C(c2ccccc2)c2ccccc2)CC1,inactive,
CCN(CC)c1ccc2cc(-c3nc4ccccc4n3C)c(=O)oc2c1,"inconclusive: 8.2 µM [activator, partial curve]",
CC(=O)/C(C#N)=C1\NC(=O)C(Cc2ccccc2Cl)S1 (configuration not stated),"inconclusive: 10.3 µM [falling, partial curve, poor fit]",
O=C(NCCc1nc2ccccc2n1CCOc1ccc(Cl)cc1)C1CCCCC1,"inconclusive: 29.1 µM [falling, single point]",
COc1ccccc1NC(=O)CN1CCN(CC(=O)Nc2ccc(OCc3ccccc3)cc2)CC1,"inconclusive: 29.1 µM [falling, partial curve, poor fit]",
Cc1cccn2c(=O)c(/C=C(\C#N)C(=O)NCc3ccco3)c(N3CCCC(C)C3)nc12 (configuration not stated),"inconclusive: 16.4 µM [falling, partial curve, poor fit]",
COc1cc(CCC(=O)OCC(=O)NC2CCCC(C)C2C)cc(OC)c1OC (configuration not stated),"inconclusive: 20.6 µM [falling, single point]",
COc1ccc(-c2c(C3C4C=CCC(C)C4C(=O)N3Cc3ccccc3)ccc3ccccc23)cc1OC (configuration not stated),inactive,
C#CCOc1ccc(C2C(C(=O)OC)=C(C)NC3=C2C(=O)c2ccccc23)cc1OCC (configuration not stated),"inconclusive: 13 µM [falling, partial curve, poor fit]",
Cn1nc(C(F)(F)F)c(C(=O)Nc2cccc(C(F)(F)F)c2)c1SCc1ccc(Cl)cc1,"inconclusive: 4.61 µM [falling, single point]",
COc1ccc(S(=O)(=O)N2CCN(c3ccccn3)CC2)cc1[N+](=O)[O-],"inconclusive: 4.61 µM [activator, partial curve, poor fit]",
Cc1ccnc(NC(=S)NC(=O)/C=C/c2ccco2)c1,"inconclusive: 18.4 µM [falling, partial curve, poor fit]",
CC(C)CC(=NNC(=O)c1ccncc1)c1cc(Cl)ccc1O,"inconclusive: 32.6 µM [falling, partial curve, poor fit]",
O=C1CCc2cc(S(=O)(=O)Nc3ccc4ccccc4c3)ccc2N1,inactive,
C=CCc1ccc(OCC(O)CN2CCC(Cc3ccccc3)CC2)c(OC)c1 (configuration not stated),"inconclusive: 18.4 µM [falling, single point]",

# Reference: PubChem BioAssay AID504648 (National Center for Advancing Translational Sciences (NCATS), 2011)
